# Source: US9050296
# Amino acid sequences for entries named in this document (tags omitted). A change or cut given only in a name is not applied to a line headed by its entry.
# UniProt Q8CG08: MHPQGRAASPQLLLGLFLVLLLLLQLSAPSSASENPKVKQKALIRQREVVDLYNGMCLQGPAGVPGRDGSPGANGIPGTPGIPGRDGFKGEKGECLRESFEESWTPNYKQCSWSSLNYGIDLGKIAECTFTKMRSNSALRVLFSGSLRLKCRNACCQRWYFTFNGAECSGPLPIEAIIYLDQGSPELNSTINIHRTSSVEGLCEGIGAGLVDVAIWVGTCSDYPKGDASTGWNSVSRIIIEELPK
# No constants are given. Whether binding was seen depends on the method and setting. Some binding calls cover weakened binding; strength is not graded here.
# Molecular target: rat Cthrc1 with a C terminal myc/6xHis tag (rat) (UniProt Q8CG08)
# Experiment: non-reducing SDS-PAGE and autoradiography of plasma 30 min after injection (self-association)
substance,measurement,value
rat Cthrc1 with a C terminal myc/6xHis tag (from UniProt Q8CG08 33-245),binding,binds
